2 compounds from PMC3894558, “Chemical signatures and new drug targets for gametocytocidal drug development” (Scientific Reports, 2014) can be followed below.

The subject of data set [1] is P. falciparum 3D7 gametocyte lysates. Description: affinity precipitation (pull-down) with mass spectrum analysis. The data set is classed as binding, Plasmodium falciparum. The settings on record: Positive = Torin 2, Negative = Torin 1 affinity precipitation.
The test system is the same in data set [2]. Description: drug affinity responsive target stability (DARTS). It is filed as binding, Plasmodium falciparum. The settings on record: 600 nM; Positive = Torin 2 protected, Negative = Torin 1 protected.

For `CCC(=O)N1CCN(c2ccc(-n3c(=O)ccc4cnc5ccc(-c6cnc7ccccc7c6)cc5c43)cc2C(F)(F)F)CC1` [Torin 1, 1-[4-[4-(1-Oxopropyl)-1-piperazinyl]-3-(trifluoromethyl)phenyl]-9-(3-quinolinyl)-benzo[h]-1,6-naphthyridin-2(1H)-one], in data set [1], the “Pull-down, peptides of Aspartate carbamoyltransferase (PF3D7_1344800)” value stood at 0; the “Pull-down, peptides of Phosphoribosyl pyrophosphate synthetase (PF3D7_1325100)” value came out at 0; the “Pull-down, peptides of Transporter, putative (PF3D7_0914700)” value worked out at 0. Moreover, in data set [2], the “DARTS, peptides of Aspartate carbamoyltransferase (PF3D7_1344800)” value is listed as 0; the “DARTS, peptides of Phosphoribosyl pyrophosphate synthetase (PF3D7_1325100)” value is recorded as 0; the “DARTS, peptides of Transporter, putative (PF3D7_0914700)” value is recorded as 0.

Take `Nc1ccc(-c2ccc3ncc4ccc(=O)n(-c5cccc(C(F)(F)F)c5)c4c3c2)cn1` [Torin 2, 9-(6-Amino-3-pyridinyl)-1-[3-(trifluoromethyl)phenyl]-benzo[h]-1,6-naphthyridin-2(1H)-one]: in data set [1], the “Pull-down, peptides of Aspartate carbamoyltransferase (PF3D7_1344800)” value came to 2; the “Pull-down, peptides of Phosphoribosyl pyrophosphate synthetase (PF3D7_1325100)” value came out at 4; the “Pull-down, peptides of Transporter, putative (PF3D7_0914700)” value is 3. Also, in data set [2], the “DARTS, peptides of Aspartate carbamoyltransferase (PF3D7_1344800)” value is recorded as 4; the “DARTS, peptides of Phosphoribosyl pyrophosphate synthetase (PF3D7_1325100)” value stood at 6; the “DARTS, peptides of Transporter, putative (PF3D7_0914700)” value is listed as 1.
